In the supplement of paper PMC7661543:
± gives the standard deviation of the averaged measurements. The effect of the compound repeats well; differences between the knockouts mostly do not.

Test system: MDA-MB-231
Experiment: relative cell number vs DMSO control (72 h) (% of DMSO); higher = less growth inhibition (more cells)
Description: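 QMAP-Seq: a pool of 5 breast cancer cell lines (ZR-75-1, SKBR3, HCC-38, MDA-MB-231, BT-20), each carrying 12 doxycycline-inducible Cas9 sgRNA perturbations (11 knockouts plus non-targeting sgNT), was treated with compounds for 72 h at four 10-fold doses (10 nM-10 uM or 1 nM-1 uM range). Barcodes were amplified and sequenced, and cell number was interpolated from 293T spike-in standard curves. The result is expressed as % of the median of DMSO wells. Two biological replicates.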

[1] = sgRNA knockout: sgATF3, 1000 nM
[2] = sgRNA knockout: sgATF3, 10000 nM
[3] = sgRNA knockout: sgATF4, 1000 nM
[4] = sgRNA knockout: sgATF4, 10000 nM
[5] = sgRNA knockout: sgATF6, 1000 nM
[6] = sgRNA knockout: sgATF6, 10000 nM
[7] = sgRNA knockout: sgATG7, 1000 nM
[8] = sgRNA knockout: sgATG7, 10000 nM
[9] = sgRNA knockout: sgERN1, 1000 nM
[10] = sgRNA knockout: sgERN1, 10000 nM
[11] = sgRNA knockout: sgHSF1, 1000 nM
[12] = sgRNA knockout: sgHSF1, 10000 nM
[13] = sgRNA knockout: sgHSF2, 1000 nM
[14] = sgRNA knockout: sgHSF2, 10000 nM
[15] = sgRNA knockout: sgKEAP1, 100 nM
[16] = sgRNA knockout: sgKEAP1, 1000 nM
[17] = sgRNA knockout: sgKEAP1, 10000 nM
[18] = sgRNA knockout: sgNFE2L2, 10 nM
[19] = sgRNA knockout: sgNFE2L2, 100 nM
[20] = sgRNA knockout: sgNFE2L2, 1000 nM
[21] = sgRNA knockout: sgNFE2L2, 10000 nM
[22] = sgRNA knockout: sgSLC35F2, 10 nM
[23] = sgRNA knockout: sgSLC35F2, 100 nM
[24] = sgRNA knockout: sgSLC35F2, 1000 nM
[25] = sgRNA knockout: sgSLC35F2, 10000 nM
[26] = sgRNA knockout: sgXBP1, 1000 nM
[27] = sgRNA knockout: sgXBP1, 10000 nM

In the case of CC[C@H](Nc1ncnc2[nH]cnc12)c1nc2cccc(F)c2c(=O)n1-c1ccccc1 [CAL101], the relative cell number (sgRNA knockout: sgATF3, 10 nM) is reported as 91.7 ± 25, the relative cell number (sgRNA knockout: sgATF3, 100 nM) is reported as 95.2 ± 19 and the relative cell number [1] is reported as 112 ± 30. For the same compound, the relative cell number [2] was 92.9 ± 1.3, the relative cell number (sgRNA knockout: sgATF4, 10 nM) was 92.1 ± 8.9 and the relative cell number (sgRNA knockout: sgATF4, 100 nM) was 111 ± 7.4. For the same compound, the relative cell number [3] was 99.3 ± 7.6, the relative cell number [4] was 115 ± 15 and the relative cell number (sgRNA knockout: sgATF6, 10 nM) was 84 ± 9.4. The relative cell number (sgRNA knockout: sgATF6, 100 nM) was 111 ± 10, the relative cell number [5] was 99.09 ± 0.37 and the relative cell number [6] was 99.4 ± 1.7. The relative cell number (sgRNA knockout: sgATG7, 10 nM) was 88.8 ± 34, the relative cell number (sgRNA knockout: sgATG7, 100 nM) was 81.5 ± 7.1 and the relative cell number [7] was 94.5 ± 38. For the same compound, the relative cell number [8] was 89.6 ± 34, the relative cell number (sgRNA knockout: sgERN1, 10 nM) was 114 ± 23 and the relative cell number (sgRNA knockout: sgERN1, 100 nM) was 109 ± 16. It also gave a relative cell number [9] of 107 ± 5.9, a relative cell number [10] of 96.5 ± 11 and a relative cell number (sgRNA knockout: sgHSF1, 10 nM) of 84.9 ± 6.8. For the same compound, the relative cell number (sgRNA knockout: sgHSF1, 100 nM) was 86.2 ± 12, the relative cell number [11] was 112.3 ± 0.55 and the relative cell number [12] was 98.6 ± 21. For the same compound, the relative cell number (sgRNA knockout: sgHSF2, 10 nM) was 117 ± 24, the relative cell number (sgRNA knockout: sgHSF2, 100 nM) was 89.3 ± 23 and the relative cell number [13] was 76.8 ± 16. For the same compound, the relative cell number [14] was 105 ± 49, the relative cell number (sgRNA knockout: sgKEAP1, 10 nM) was 96 ± 17 and the relative cell number [15] was 71.2 ± 14. It also gave a relative cell number [16] of 99 ± 2.8, a relative cell number [17] of 98.9 ± 14 and a relative cell number [18] of 75.7 ± 18. It also gave a relative cell number [19] of 94 ± 25, a relative cell number [20] of 95.4 ± 17 and a relative cell number [21] of 98 ± 3.1. For the same compound, the relative cell number [22] was 102 ± 5.5, the relative cell number [23] was 81.6 ± 14 and the relative cell number [24] was 97.8 ± 2.4. The relative cell number [25] was 108 ± 12, the relative cell number (sgRNA knockout: sgXBP1, 10 nM) was 103 ± 35 and the relative cell number (sgRNA knockout: sgXBP1, 100 nM) was 87.3 ± 1.2. The relative cell number [26] was 91.5 ± 15 and the relative cell number [27] was 102 ± 13.

CC(=O)O[C@H]1C(=O)[C@@]2(C)[C@H]([C@H](OC(=O)c3ccccc3)[C@]3(O)C[C@H](OC(=O)[C@H](O)[C@@H](NC(=O)c4ccccc4)c4ccccc4)C(C)=C1C3(C)C)[C@]1(OC(C)=O)CO[C@@H]1C[C@@H]2O [Paclitaxel] gave a relative cell number (sgRNA knockout: sgATF3, 10 nM) of 26 ± 5.2, a relative cell number (sgRNA knockout: sgATF3, 100 nM) of 15 ± 6.7 and a relative cell number [1] of 20.5 ± 9.7. For the same compound, the relative cell number [2] was 31.3 ± 9.1, the relative cell number (sgRNA knockout: sgATF4, 10 nM) was 50.6 ± 11 and the relative cell number (sgRNA knockout: sgATF4, 100 nM) was 21.9 ± 11. It also gave a relative cell number [3] of 22.1 ± 2.5, a relative cell number [4] of 38.1 ± 16 and a relative cell number (sgRNA knockout: sgATF6, 10 nM) of 29 ± 4.7. For the same compound, the relative cell number (sgRNA knockout: sgATF6, 100 nM) was 14 ± 1.6, the relative cell number [5] was 22 ± 2.7 and the relative cell number [6] was 42.5 ± 15. The relative cell number (sgRNA knockout: sgATG7, 10 nM) was 33.8 ± 8.2, the relative cell number (sgRNA knockout: sgATG7, 100 nM) was 16.2 ± 4.3 and the relative cell number [7] was 18.3 ± 15. For the same compound, the relative cell number [8] was 30.1 ± 7.7, the relative cell number (sgRNA knockout: sgERN1, 10 nM) was 32.9 ± 14 and the relative cell number (sgRNA knockout: sgERN1, 100 nM) was 16.3 ± 4.1. It also gave a relative cell number [9] of 15.7 ± 1.4, a relative cell number [10] of 33.1 ± 1.5 and a relative cell number (sgRNA knockout: sgHSF1, 10 nM) of 33.8 ± 7.1. For the same compound, the relative cell number (sgRNA knockout: sgHSF1, 100 nM) was 13.8 ± 0.36, the relative cell number [11] was 17.7 ± 6.6 and the relative cell number [12] was 33.7 ± 5.8. The relative cell number (sgRNA knockout: sgHSF2, 10 nM) was 30.2 ± 12, the relative cell number (sgRNA knockout: sgHSF2, 100 nM) was 26.2 ± 7.8 and the relative cell number [13] was 17.2 ± 12. For the same compound, the relative cell number [14] was 39.5 ± 16, the relative cell number (sgRNA knockout: sgKEAP1, 10 nM) was 26.9 ± 12 and the relative cell number [15] was 16.6 ± 6.4. The relative cell number [16] was 18 ± 11, the relative cell number [17] was 36.8 ± 8.6 and the relative cell number [18] was 32.9 ± 15. For the same compound, the relative cell number [19] was 21.7 ± 1.3, the relative cell number [20] was 19.9 ± 6.1 and the relative cell number [21] was 25.8 ± 10. It also gave a relative cell number [22] of 31.1 ± 4.4, a relative cell number [23] of 18.1 ± 12 and a relative cell number [24] of 18.4 ± 8.7. For the same compound, the relative cell number [25] was 41.8 ± 7.3, the relative cell number (sgRNA knockout: sgXBP1, 10 nM) was 34.6 ± 8.6 and the relative cell number (sgRNA knockout: sgXBP1, 100 nM) was 20.5 ± 7.6. It also gave a relative cell number [26] of 16.3 ± 2.9 and a relative cell number [27] of 31.2 ± 3.1.
